This series concerns SMCs in the vein wall. Description: alpha-smooth muscle actin immunostaining of AV fistula veins 48 hours after PDT. Type of series: in vivo, Domestic swine. As to conditions: 40 minutes OR light.

Entries after “also recorded” stand apart in the source; their conditions may differ.

On to “benzoporphyrin derivative monoacid ring A [BPD-MA]”, for which, under “0.15 mg BPD-MA (0.15 mg/2 mL)”, the “Mean Percent of the Total Tissue Area Which was α-actin Positive, PDT, BLOCK 1” value amounted to 1.94%; the “Mean Percent of the Total Tissue Area Which was α-actin Positive, PDT, BLOCK 2” value was determined as 3.06%; the “Mean Percent of the Total Tissue Area Which was α-actin Positive, PDT, BLOCK 3” value worked out at 2.81%. Under “0.15 mg BPD-MA”, the “Area of the veins stained positively for SMC, PDT-treated vs control” value was “No significant difference; also recorded: minor differences”.

The values above are taken from patent US6609014B1, “Use of PDT to inhibit intimal hyperplasia” (QLT Inc., priority 1999, dated 2003).
